Reference: PubChem BioAssay AID1224830 (NIAID, 2016)
In all, the deposit lists about 18,000 reagents; below is a part drawn at random. Over the whole deposit, about 2,900 (16%) were called active. 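Calls are made per well; low scores hint the gene aids the LPS response, high scores that it dampens it.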 Entries without a mark were called inactive. Repeated entries: four replicate wells of each siRNA pool.

Assay: 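Regulators of TLR4 signalling towards TNF-alpha in macrophage-like cells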 (primary screen)
Cells: human THP-1 monocytic leukaemia cells, TNF dual-luciferase reporter clone, PMA-differentiated to macrophage-like cells
Reagent: siRNA pool against human genes, 50 nM
Duration: LPS for 4 h, given about 3 days after siRNA transfection
Conditions: bacterial LPS (TLR4 ligand), 10 ng/ml
Measurement: 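Ratio of firefly to renilla light, scaled to the plate median and expressed as a robust z-score per replicate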
Direction: TNF reporter robust z-score: higher = stronger TNF reporter response to LPS
Rule for the call: 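Each well counts as active if its z-score is over 2.8 or under -1.5; controls are left without a call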

TNF reporter robust z-score	target gene
-1.24	SMPD2 (sphingomyelin phosphodiesterase 2)
-1.51 (active)	SMPD2 (sphingomyelin phosphodiesterase 2)
-1.68 (active)	SMPD2 (sphingomyelin phosphodiesterase 2)
-1.27	SMPD2 (sphingomyelin phosphodiesterase 2)
0.25	PRDM9 (PR/SET domain 9)
0	PRDM9 (PR/SET domain 9)
0.45	PRDM9 (PR/SET domain 9)
0.09	PRDM9 (PR/SET domain 9)
-0.51	SURF1 (SURF1 cytochrome c oxidase assembly factor)
0.03	SURF1 (SURF1 cytochrome c oxidase assembly factor)
-0.59	SURF1 (SURF1 cytochrome c oxidase assembly factor)
-1	SURF1 (SURF1 cytochrome c oxidase assembly factor)
-1.36	SLC34A2
-1.1	SLC34A2
-1.18	SLC34A2
-0.67	SLC34A2
-0.85	ELAC1 (elaC ribonuclease Z 1)
-0.82	ELAC1 (elaC ribonuclease Z 1)
-0.86	ELAC1 (elaC ribonuclease Z 1)
0.66	ELAC1 (elaC ribonuclease Z 1)
-0.74	SIAH3 (siah E3 ubiquitin protein ligase family member 3)
-0.8	SIAH3 (siah E3 ubiquitin protein ligase family member 3)
-0.65	SIAH3 (siah E3 ubiquitin protein ligase family member 3)
-0.53	SIAH3 (siah E3 ubiquitin protein ligase family member 3)
0.75	IGIP (IgA inducing protein)
2.29	IGIP (IgA inducing protein)
1.96	IGIP (IgA inducing protein)
2.28	IGIP (IgA inducing protein)
0.89	RASSF8 (Ras association domain family member 8)
1	RASSF8 (Ras association domain family member 8)
-0.15	RASSF8 (Ras association domain family member 8)
0.33	RASSF8 (Ras association domain family member 8)
-0.55	MOV10L1 (Mov10 like RNA helicase 1)
-1.34	MOV10L1 (Mov10 like RNA helicase 1)
-1.13	MOV10L1 (Mov10 like RNA helicase 1)
-0.38	MOV10L1 (Mov10 like RNA helicase 1)
-0.29	LRRC66 (leucine rich repeat containing 66)
-0.53	LRRC66 (leucine rich repeat containing 66)
-0.39	LRRC66 (leucine rich repeat containing 66)
-0.71	LRRC66 (leucine rich repeat containing 66)
-0.14	MTFP1 (mitochondrial fission process 1)
0.52	MTFP1 (mitochondrial fission process 1)
0.85	MTFP1 (mitochondrial fission process 1)
1.13	MTFP1 (mitochondrial fission process 1)
0.47	HTR1B (5-hydroxytryptamine receptor 1B)
0.25	HTR1B (5-hydroxytryptamine receptor 1B)
-0.23	HTR1B (5-hydroxytryptamine receptor 1B)
-0.04	HTR1B (5-hydroxytryptamine receptor 1B)
2.58	MT1X (metallothionein 1X)
2.84 (active)	MT1X (metallothionein 1X)
3.03 (active)	MT1X (metallothionein 1X)
-0.92	MT1X (metallothionein 1X)
-1.17	SGTA
0.97	SGTA
-0.64	SGTA
-1.4	SGTA
-0.67	ATP5F1C (ATP synthase F1 subunit gamma)
-0.71	ATP5F1C (ATP synthase F1 subunit gamma)
-0.42	ATP5F1C (ATP synthase F1 subunit gamma)
-0.84	ATP5F1C (ATP synthase F1 subunit gamma)
-0.51	ZNHIT1 (zinc finger HIT-type containing 1)
0.41	ZNHIT1 (zinc finger HIT-type containing 1)
-0.41	ZNHIT1 (zinc finger HIT-type containing 1)
0.02	ZNHIT1 (zinc finger HIT-type containing 1)
0.53	SNIP1 (Smad nuclear interacting protein 1)
0.09	SNIP1 (Smad nuclear interacting protein 1)
1.11	SNIP1 (Smad nuclear interacting protein 1)
-0.05	SNIP1 (Smad nuclear interacting protein 1)
0.91	RPL17 (ribosomal protein L17)
0.48	RPL17 (ribosomal protein L17)
-0.3	RPL17 (ribosomal protein L17)
1.49	RPL17 (ribosomal protein L17)
0.23	SERPINA9 (serpin family A member 9)
-1.02	SERPINA9 (serpin family A member 9)
-0.53	SERPINA9 (serpin family A member 9)
0.04	SERPINA9 (serpin family A member 9)

An excerpt from the list above, as a working copy:
TNF reporter robust z-score	target gene
0.53	SNIP1 (Smad nuclear interacting protein 1)
0.09	SNIP1 (Smad nuclear interacting protein 1)
1.11	SNIP1 (Smad nuclear interacting protein 1)
-0.05	SNIP1 (Smad nuclear interacting protein 1)
0.91	RPL17 (ribosomal protein L17)
0.48	RPL17 (ribosomal protein L17)
-0.3	RPL17 (ribosomal protein L17)
1.49	RPL17 (ribosomal protein L17)
